# The supplement of paper PMC8728848
# The other results are listed elsewhere or left out.
# What was measured:
# Assay in all cases: glycan array binding signal (z-score within array); higher = stronger binding
# Conditions in all cases: glycan notation: IUPAC condensed, linker removed
# [1] = target: Neu5Ac(a2-3)Gal(b1-4)GlcNAc(b1-2)[Neu5Ac(a2-3)Gal(b1-4)GlcNAc(b1-4)]Man(a1-3)[GlcNAc(b1-4)][Neu5Ac(a2-3)Gal(b1-4)GlcNAc(b1-4)Man(a1-6)]Man(b1-4)GlcNAc(b1-4)GlcNAc
# In short: (§1)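 Glycan array binding is given as a within-array Z-score, which can be read as non-binding when negative. The arrays, 3228 of them, came from the Consortium for Functional Glycomics database and were retained only where the protein sequence was available. Z-scores were averaged across arrays of the same protein sequence at different concentrations or buffers and across linkers.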
# [2] = target: Neu5Ac(a2-3)Gal(b1-4)GlcNAc(b1-2)[Neu5Ac(a2-3)Gal(b1-4)GlcNAc(b1-6)]Man(a1-6)[Neu5Ac(a2-3)Gal(b1-4)GlcNAc(b1-2)Man(a1-3)]Man(b1-4)GlcNAc(b1-4)GlcNAc
# In short: as §1
# [3] = target: Neu5Ac(a2-3)Gal(b1-4)GlcNAc(b1-2)[Neu5Ac(a2-3)Gal(b1-4)GlcNAc(b1-6)]Man(a1-6)[Neu5Ac(a2-3)Gal(b1-4)GlcNAc(b1-2)Man(a1-3)][GlcNAc(b1-4)]Man(b1-4)GlcNAc(b1-4)GlcNAc
# In short: as §1
# [4] = target: Neu5Ac(a2-3)Gal(b1-4)GlcNAc(b1-3)Gal
# In short: as §1
# [5] = target: Neu5Ac(a2-3)Gal(b1-4)GlcNAc(b1-3)Gal(b1-3)GlcNAc
# In short: as §1
# [6] = target: Neu5Ac(a2-3)Gal(b1-4)GlcNAc(b1-3)Gal(b1-4)GlcNAc
# In short: as §1
# [7] = target: Neu5Ac(a2-3)Gal(b1-4)GlcNAc(b1-3)Gal(b1-4)GlcNAc(b1-2)Man(a1-3)[Neu5Ac(a2-3)Gal(b1-4)GlcNAc(b1-3)Gal(b1-4)GlcNAc(b1-2)Man(a1-6)]Man(b1-4)GlcNAc(b1-4)GlcNAc
# In short: as §1
# [8] = target: Neu5Ac(a2-3)Gal(b1-4)GlcNAc(b1-3)Gal(b1-4)GlcNAc(b1-3)Gal(b1-4)GlcNAc
# In short: as §1
# [9] = target: Neu5Ac(a2-3)Gal(b1-4)GlcNAc(b1-3)Gal(b1-4)GlcNAc(b1-3)Gal(b1-4)GlcNAc(b1-2)Man(a1-3)[Neu5Ac(a2-3)Gal(b1-4)GlcNAc(b1-3)Gal(b1-4)GlcNAc(b1-3)Gal(b1-4)GlcNAc(b1-2)Man(a1-6)]GalNAc
# In short: as §1
# [10] = target: Neu5Ac(a2-3)Gal(b1-4)GlcNAc(b1-3)Gal(b1-4)GlcNAc(b1-3)GalNAc
# In short: as §1
# [11] = target: Neu5Ac(a2-3)Gal(b1-4)GlcNAc(b1-3)Gal(b1-4)GlcNAc(b1-3)[Neu5Ac(a2-3)Gal(b1-4)GlcNAc(b1-3)Gal(b1-4)GlcNAc(b1-6)]GalNAc
# In short: as §1
# [12] = target: Neu5Ac(a2-3)Gal(b1-4)GlcNAc(b1-3)Gal(b1-4)GlcNAc(b1-6)[Gal(b1-3)]GalNAc
# In short: as §1
# [13] = target: Neu5Ac(a2-3)Gal(b1-4)GlcNAc(b1-3)Gal(b1-4)[Fuc(a1-3)]GlcNAc
# In short: as §1
# [14] = target: Neu5Ac(a2-3)Gal(b1-4)GlcNAc(b1-3)GalNAc
# In short: as §1
# [15] = target: Neu5Ac(a2-3)Gal(b1-4)GlcNAc(b1-3)[Neu5Ac(a2-3)Gal(b1-4)GlcNAc(b1-6)]GalNAc
# In short: as §1
# [16] = target: Neu5Ac(a2-3)Gal(b1-4)GlcNAc(b1-6)GalNAc
# In short: as §1
# [17] = target: Neu5Ac(a2-3)Gal(b1-4)GlcNAc(b1-6)[Gal(b1-3)]GalNAc
# In short: as §1
# [18] = target: Neu5Ac(a2-3)Gal(b1-4)GlcNAc(b1-6)[Neu5Ac(a2-3)Gal(b1-3)]GalNAc
# In short: as §1
# [19] = target: Neu5Ac(a2-3)Gal(b1-4)GlcNAc6S
# In short: as §1
# [20] = target: Neu5Ac(a2-3)Gal(b1-4)[Fuc(a1-3)]GlcNAc
# In short: as §1
# [21] = target: Neu5Ac(a2-3)Gal(b1-4)[Fuc(a1-3)]GlcNAc(b1-2)Man
# In short: as §1
# [22] = target: Neu5Ac(a2-3)Gal(b1-4)[Fuc(a1-3)]GlcNAc(b1-3)Gal
# In short: as §1
# [23] = target: Neu5Ac(a2-3)Gal(b1-4)[Fuc(a1-3)]GlcNAc(b1-3)Gal(b1-4)GlcNAc
# In short: as §1
# [24] = target: Neu5Ac(a2-3)Gal(b1-4)[Fuc(a1-3)]GlcNAc(b1-3)Gal(b1-4)[Fuc(a1-3)]GlcNAc(b1-3)Gal(b1-4)[Fuc(a1-3)]GlcNAc
# In short: as §1
# [25] = target: Neu5Ac(a2-3)Gal(b1-4)[Fuc(a1-3)]GlcNAc(b1-3)GalNAc
# In short: as §1
# [26] = target: Neu5Ac(a2-3)Gal(b1-4)[Fuc(a1-3)]GlcNAc(b1-6)[Gal(b1-3)]GalNAc
# In short: as §1
# [27] = target: Neu5Ac(a2-3)Gal(b1-4)[Fuc(a1-3)]GlcNAc(b1-6)[Neu5Ac(a2-3)Gal(b1-3)]GalNAc
# In short: as §1
# [28] = target: Neu5Ac(a2-3)Gal(b1-4)[Fuc(a1-3)]GlcNAc6S
# In short: as §1
# [29] = target: Neu5Ac(a2-3)Gal6S(b1-4)GlcNAc
# In short: as §1
# [30] = target: Neu5Ac(a2-3)Gal6S(b1-4)[Fuc(a1-3)]GlcNAc
# In short: as §1
# Neu5Ac(a2-3)GalNAc = target: Neu5Ac(a2-3)GalNAc
# In short: as §1
# [31] = target: Neu5Ac(a2-3)GalNAc(b1-4)GlcNAc
# In short: as §1
# [32] = target: Neu5Ac(a2-3)[GalNAc(b1-4)]Gal(b1-4)Glc
# In short: as §1
# [33] = target: Neu5Ac(a2-3)[GalNAc(b1-4)]Gal(b1-4)GlcNAc
# In short: as §1
# [34] = target: Neu5Ac(a2-3)[GalNAc(b1-4)]Gal(b1-4)GlcNAc(b1-3)GalNAc
# In short: as §1
# [35] = target: Neu5Ac(a2-3)[Neu5Ac(a2-6)]GalNAc
# In short: as §1
# Neu5Ac(a2-6)Gal = target: Neu5Ac(a2-6)Gal
# In short: as §1
# [36] = target: Neu5Ac(a2-6)Gal(b1-3)GlcNAc(b1-3)[Gal(b1-4)GlcNAc(b1-6)]Gal(b1-4)Glc
# In short: as §1
# Neu5Ac(a2-6)Gal(b1-4)Glc = target: Neu5Ac(a2-6)Gal(b1-4)Glc
# In short: as §1
# [37] = target: Neu5Ac(a2-6)Gal(b1-4)GlcNAc
# In short: as §1
# [38] = target: Neu5Ac(a2-6)Gal(b1-4)GlcNAc(b1-2)Man
# In short: as §1
# [39] = target: Neu5Ac(a2-6)Gal(b1-4)GlcNAc(b1-2)Man(a1-3)Man(b1-4)GlcNAc(b1-4)GlcNAc
# In short: as §1
# [40] = target: Neu5Ac(a2-6)Gal(b1-4)GlcNAc(b1-2)Man(a1-3)[Gal(b1-4)GlcNAc(b1-2)Man(a1-6)]Man(b1-4)GlcNAc(b1-4)GlcNAc
# In short: as §1
# [41] = target: Neu5Ac(a2-6)Gal(b1-4)GlcNAc(b1-2)Man(a1-3)[GlcNAc(b1-2)Man(a1-6)]Man(b1-4)GlcNAc(b1-4)GlcNAc
# In short: as §1
# [42] = target: Neu5Ac(a2-6)Gal(b1-4)GlcNAc(b1-2)Man(a1-3)[GlcNAc(b1-4)][Neu5Ac(a2-6)Gal(b1-4)GlcNAc(b1-2)Man(a1-6)]Man(b1-4)GlcNAc(b1-4)GlcNAc
# In short: as §1
binder,measurement,setting,value
B3GalT2 (Rattus norvegicus) (protein) LMLQWRRRHCCFAKMSWNAKRSLFRTHLMGVLSLVFLFAMFLFFNHHDWLPGRPGFKENPVTYTFRGFRSTKTETNQSSLRNIWKEVVPQTLRPQTATNSNNTELSPQGVTGLENTLSANGSIYNEKGTGHPNSYHFKYIINEPEKCQEKSPFLILLIAAEPGQIEARRAIRQTWGNETLAPGIQITRIFLLGISIKLNGYLQHAIQEESIQYHDIIQQEYLDTYYNLTIKTLMGMNWVATYCPHTPYVMKTDSDMFVNTEYLIHKLLKPDLPPRHNYFTGYLMRGYAPNRNKDSKWYMPPDLYPSERYPVFCSGTGYVFSGDLAEKIFKVSLGIRRLHLEDVYVGICLAKLRVDPVPPPNEFVFNHWRVSYSSCKYSHLITSHQFQPSELIKYWNHLQQNKHNACVNAAKEKAGRYRHRKLH,glycan array binding signal (z-score),[1],1.51
same,glycan array binding signal (z-score),[2],-0.979
same,glycan array binding signal (z-score),[3],0.161
same,glycan array binding signal (z-score),[4],-0.297
same,glycan array binding signal (z-score),[5],-0.909
same,glycan array binding signal (z-score),[6],1.43
same,glycan array binding signal (z-score),[7],-0.738
same,glycan array binding signal (z-score),[8],0.577
same,glycan array binding signal (z-score),[9],-0.871
same,glycan array binding signal (z-score),[10],-0.13
same,glycan array binding signal (z-score),[11],-0.691
same,glycan array binding signal (z-score),[12],-0.87
same,glycan array binding signal (z-score),[13],0.671
same,glycan array binding signal (z-score),[14],-0.392
same,glycan array binding signal (z-score),[15],0.01
same,glycan array binding signal (z-score),[16],-0.436
same,glycan array binding signal (z-score),[17],-1.06
same,glycan array binding signal (z-score),[18],0.174
same,glycan array binding signal (z-score),[19],1.28
same,glycan array binding signal (z-score),[20],-0.579
same,glycan array binding signal (z-score),[21],0.33
same,glycan array binding signal (z-score),[22],0.395
same,glycan array binding signal (z-score),[23],-0.428
same,glycan array binding signal (z-score),[24],-0.684
same,glycan array binding signal (z-score),[25],-0.485
same,glycan array binding signal (z-score),[26],-0.716
same,glycan array binding signal (z-score),[27],-0.557
same,glycan array binding signal (z-score),[28],0.576
same,glycan array binding signal (z-score),[29],0.902
same,glycan array binding signal (z-score),[30],-0.505
same,glycan array binding signal (z-score),Neu5Ac(a2-3)GalNAc,2.8
same,glycan array binding signal (z-score),[31],0.683
same,glycan array binding signal (z-score),[32],-0.125
same,glycan array binding signal (z-score),[33],-0.318
same,glycan array binding signal (z-score),[34],-1.11
same,glycan array binding signal (z-score),[35],1.2
same,glycan array binding signal (z-score),Neu5Ac(a2-6)Gal,2.53
same,glycan array binding signal (z-score),[36],-0.99
same,glycan array binding signal (z-score),Neu5Ac(a2-6)Gal(b1-4)Glc,0.263
same,glycan array binding signal (z-score),[37],1.67
same,glycan array binding signal (z-score),[38],-0.417
same,glycan array binding signal (z-score),[39],0.591
same,glycan array binding signal (z-score),[40],-0.721
same,glycan array binding signal (z-score),[41],-0.991
same,glycan array binding signal (z-score),[42],0.077

# 2 records picked at random from those above:
binder,measurement,setting,value
B3GalT2 (Rattus norvegicus) (protein) LMLQWRRRHCCFAKMSWNAKRSLFRTHLMGVLSLVFLFAMFLFFNHHDWLPGRPGFKENPVTYTFRGFRSTKTETNQSSLRNIWKEVVPQTLRPQTATNSNNTELSPQGVTGLENTLSANGSIYNEKGTGHPNSYHFKYIINEPEKCQEKSPFLILLIAAEPGQIEARRAIRQTWGNETLAPGIQITRIFLLGISIKLNGYLQHAIQEESIQYHDIIQQEYLDTYYNLTIKTLMGMNWVATYCPHTPYVMKTDSDMFVNTEYLIHKLLKPDLPPRHNYFTGYLMRGYAPNRNKDSKWYMPPDLYPSERYPVFCSGTGYVFSGDLAEKIFKVSLGIRRLHLEDVYVGICLAKLRVDPVPPPNEFVFNHWRVSYSSCKYSHLITSHQFQPSELIKYWNHLQQNKHNACVNAAKEKAGRYRHRKLH,glycan array binding signal (z-score),[15],0.01
same,glycan array binding signal (z-score),[30],-0.505
